Measured values: patent publication US7786259 (dated 2010)

Assays:
[1] = general procedure: peptide synthesis; MBHA-Z-Glu-OtBu resin (4-methyl-benzhydryl amine polystyrene); Pam resin; hydroxymethyl polystyrene; HATU/TMP; settings: whole synthesis; for crude HPLC purity: 260 nm
[2] = general procedure: peptide synthesis; Dde resin; HATU/TMP; settings: whole synthesis, HPLC of the crude product at 260 nm, C18 column

Substance | crude HPLC purity [1] | crude HPLC purity [2] | crude yield ([1]; amount of peptide obtained after cleavage)
Tyr-Ala-Orn-NHCH(CH3)COCF3•H2O | 74% |  | 
Tyr-Ala-Val-NHCH(CH3)COCF3•H2O |  | 85% | >80%
Tyr-Ala-Phe-NHCH(CH3)COCF3•H2O | 74% |  | 
